{
  "source": "paper PMC11849849",
  "binders": {"B1": {"name": "50S ribosomal protein L28 (protein, UniProt Q9HTN8 1-78)", "chain": "MSRVCQVTGKGPVTGNNISHAHNKTRRRFLPNLQHHRFWVESEKRFVRLRVSAKGMRIIDKRGIEAVLADLRARGEKF"}, "B2": {"name": "tRNA(Ile)-lysidine synthase (enzyme, UniProt Q9HXZ3 1-442)", "chain": "MPAVPLESRLLQALAPWREAGGWCVAFSGGLDSTVLLHLLAQLARSEALPALSALHVHHGLQAAADGWPAHCQAVCRSLGIPLRVERVQVAVGGSIEQAARDARYRAFQANLGEGQVLLTAQHLDDQAETLLFRLLRGAGLRGLAAMPASRPLGGGRLCRPLLGVSRAELEAYAQAHRLDWVEDPSNQDPRFSRNYLRREIMPRLASHWPQAVAGMARCAAHLREAEDLLAELAAIDLRACRQPSELDWPDWLDLPRIALEPLRRLSAARQRNLLRAWLGQLTRLPDSDHWAGWESLRDAGDDADPIWRLESGELRRGAGRIWWLPADWRAAAGPFVWERPAHPLLLPGNGRLALLGEVPAGPLRVDYRRGGEVLALAGRGRRDLKRLLNEAGVPSFLRGRLPLLFRADELLAVANIPGLDSPREGGWRLSWSPPTNDPGLS"}, "B3": {"name": "Probable transcriptional regulator (Q9I6N6) (protein, UniProt Q9I6N6 1-158)", "chain": "MTGPMTETNALGLPQGPLYLMTEIVRQRERQLTALLAPLELGLHEWRALRIIHAFDGDVPMSVLIEHSQTDRTALGRTIERLVRRGWVSRLPDPDDGRAVLVRRSPAAQAVFEQALAQVAGLDERLLAGLGSGPEEEALTLVLGKLLRAFDGLSRVRQ"}, "B4": {"name": "Probable transcriptional regulator (Q9I2Y0) (protein, UniProt Q9I2Y0 1-901)", "chain": "MDAVQDPAAGSLSRSRIVPPQVPAEYSLRPAIRNLLDRNPHSRVLMFSAPAGFGKTCALAALARERTVADQAVAWLSLAEEDDDPARFCRQLIEALGEAVPQLGDDAQTYLQNTMRVPVVAVIESLLGDLDRYARPLLLVLDDLHLVSNPDIFTGLNRLVQYAPPGLVLALGTRSQPALSLATWRAKGLLLEIGLEELRLGFEETREYLERSGLYLDEPCLKALYGQTEGWVVGVHLVSLWLRQQPQVQEMALLDGDKQAVSAYLLAAVFERLPGDLQEALLALGVASQLSGDLANALTGRQDGQALLERLESMQLFLLPLDRERQWYRFHLLFADFLRNRLRDSDPDRFKQLHFNASLWFTNHHMPTFAIEHACAAEDPEMIAALVDGCGLELINRGQLSLIYRWRKHVPDEIAERYPILVLTDVWSRASDLSLGEANRIIDELLARWGESRGDGPMGDQYLSALAVKAVVALQKDDLELCIALARRVEVQLGQNAAFLEVAVLITAALAQVVRGQGDQARRLLGLAQQRNHFLEGRYLDMQLANVEVILALEQGQVKQAQLLIERLRQRARPLFEKSRSALALPTITEALTAYYRIELDGLEERLGWALGHVDVINPIDFYAQGQICLARTQRLLGRPKEALASLAAMQALASRNQSWRFFAQAMAEEINLILQDSGPDRLKRAEQRLKSVDWNKMAAHYRNMAFNPVNWSLGVSRVRLLQGRGHFSEALHEITQLRGTLQPGWHGLQRLRLDILAALSYQRLGYQERANSLLGECLINAEREGVRSLFIEEGDGIRQLLQQLESTERQPALQTFIRGLLGIWPGQGVRKPQDALEEGLTEREREVVCLAAQGLSNEEIGQRLSLALGTVKWHLHNIYEKLKVRNRTQAIRRARELSLL"}, "B5": {"name": "Stringent starvation protein B (protein, UniProt Q9HVY8 1-135)", "chain": "MNSSRPYLVRALYEWIVDNDCTPHILVNAEFAGVKVPPGYASDGQIVLNVSPSAVRHLHMDNEAVSFEGRFGGVAQSLYIPALAVMAIYARENGQGMVFDLEQPGPVDDEPGDDDGGPSDEPPRPSGRPSLKVVK"}, "B6": {"name": "DNA-binding protein HU-beta (protein, UniProt P05384 1-90)", "chain": "MNKSELIDAIAASADIPKAVAGRALDAVIESVTGALKAGDSVVLVGFGTFAVKERAARTGRNPQTGKPIKIAAAKIPGFKAGKALKDAVN"}, "B7": {"name": "Probable dehydrogenase (enzyme, UniProt Q9HWU9 1-229)", "chain": "MHNVLIVGASRGIGLGLADAFLQRGAQVFAVARRPQGSPGLQALAERAGERLQAVTGDLNQHDCAERIGEMLGERRIDRLIVNAGIYGPQQQDVAEIDAEQTAQLFLTNAIAPLRLARALSGRVSRGGVVAFMSSQMASLALGLSATMPLYGASKAALNSLVRSWEGEFEELPFSLLLLHPGWVRTEMGGDSAPLSVEESAAGLVAAVEDAAGVNACRFVDYRNQPLPW"}, "B8": {"name": "Alpha-2-macroglobulin homolog (protein, UniProt Q9HVT2 27-1516)", "chain": "EDTVEPSGYTPMAGESFFLLADSSFATDEEARVRLEAPGRDYRRYRMEPYGGVDVRLYRIEQPLEFLKRQKNLHRVLAEGQFKGEGLSNTLAYLWDNWYRKSRRVMQRAFSYESRQQVTEAVPELKMGNAMTAPTPYDAQPQYAPIPGLPLVSQFRYPLWDAKPIEPPQDVKLAGSSSEFINVVPGNVYIPLGKLKPGLYLVEALVGKYRATTVVFVSNSVAVSKVAGDELLVWTARKHEGTPVPDTKVLWTDGLGVMSSGNTDADGLLRLKHASPERSYVIGEDREGGVFVSENFYYDSEIYDTKIYAFTDRPLYRPGDWVSLKMVGREFKDARQSQAAASAPVRLSVIDASGTVLQSLDLRFDAKSGANGRFQLPENAVAGGYELRFDYRGQTYSSAFRVAEYIKPHFEVALDLAKPDFKTAEPVKGEIVLLYPDGKPVANARLQLSLRAQQLSMVDNELQYLGQFPVELSSTELTTDGKGRAAIELPPAEKPSRYMLTIFASDGAAYRVKTSKEILIERGAARYRLSAPQRFSAAGEKVEFSYASEQPTPLKPSSYQWIRLEDRATDSGPVADGRFALTFERPGTYSVELRDDKGQLLGATGHSVSGEGVKSVPGTVEVVFDKPEYRTGEEASALITFPEPVEDALLSLERDKVEATALLSKGADWLRLEKLNPTQYRVWIPVREEFSPNLTFSVLYTKGGDYSFQNAGIKVGMPQVEIDIATDKERYEPGETVTVTLATRFAGKPVSSHLTVSVVDEMVYALQAEIAPGIDQFFYHPRRNNVRTSASLAFISYDVALPGSTSAPGRANRSERGVKVLERPRREDVDTAAWQPELVTDAQGKASFSFRMPDSLTRWRITARAIDDNGQVGQKKQFLRSEKPLYLKWSGPTRFRQGDQPDLGLFVFNQGEQPVKAELLSGPPGSQRSQTLELAKGVNYIPLAQQPLSDGDWSAELRQDGQVRDRLAVRFNLLADGWQVEQMQNLSLAAASNPLQLPADARDVRLRLADGPAAAYLGNLDDLLEYPYGGVEQTASQLLPLSIAYPALAGGEPRIRDRLRLIMQNSRLRLVQMAGPDAWFAWWGGDVDGDAFLTAYAYYADWYASRALEIQLPAEHWQRILEPYAKQATQTPLLQRALILAFARDMQLPVNTLLGGLLNDLANAGEGQARAEPLEADDGLVLGDPDSAVGLAAARVLAVDLARQLRVAVPAPLAAQAETATQRLREAGLPFTDALLASRSAVDGQQASALLQRLAPAQSTLERALALTWLQGALAQAPQGKLPQPPKDWQAQRGASGETYWQWRGRGIPSWVDLDEAPARPLPVALSYRSAQAPSGQLPVQISRRLLRLVPGEGAFEFKVEEVGDKPLSSDELYLDEVTLNVPEDTALRYGMLELPLPPGADVERTTWGIKISGLAGDEATTLERARNEPGELFYGVPVDSLSGEQRFRHLVRFSQKGSFNLPPARYLRLYAPEQQALEAKPALAKVKVE"}, "B9": {"name": "Acyl-homoserine lactone acylase PvdQ (enzyme, UniProt Q9I194 24-762)", "chain": "DMPRPTGLAADIRWTAYGVPHIRAKDERGLGYGIGYAYARDNACLLAEEIVTARGERARYFGSEGKSSAELDNLPSDIFYAWLNQPEALQAFWQAQTPAVRQLLEGYAAGFNRFLREADGKTTSCLGQPWLRAIATDDLLRLTRRLLVEGGVGQFADALVAAAPPGAEKVALSGEQAFQVAEQRRQRFRLERGSNAIAVGSERSADGKGMLLANPHFPWNGAMRFYQMHLTIPGRLDVMGASLPGLPVVNIGFSRHLAWTHTVDTSSHFTLYRLALDPKDPRRYLVDGRSLPLEEKSVAIEVRGADGKLSRVEHKVYQSIYGPLVVWPGKLDWNRSEAYALRDANLENTRVLQQWYSINQASDVADLRRRVEALQGIPWVNTLAADEQGNALYMNQSVVPYLKPELIPACAIPQLVAEGLPALQGQDSRCAWSRDPAAAQAGITPAAQLPVLLRRDFVQNSNDSAWLTNPASPLQGFSPLVSQEKPIGPRARYALSRLQGKQPLEAKTLEEMVTANHVFSADQVLPDLLRLCRDNQGEKSLARACAALAQWDRGANLDSGSGFVYFQRFMQRFAELDGAWKEPFDAQRPLDTPQGIALDRPQVATQVRQALADAAAEVEKSGIPDGARWGDLQVSTRGQERIAIPGGDGHFGVYNAIQSVRKGDHLEVVGGTSYIQLVTFPEEGPKARGLLAFSQSSDPRSPHYRDQTELFSRQQWQTLPFSDRQIDADPQLQRLSIRE"}, "B10": {"name": "50S ribosomal protein L22 (protein, UniProt Q9HWE0 1-110)", "chain": "MEVAAKLSGARISAQKARLVADQIRGKKVGEALNLLAFSSKKAAEIMKKVLESAVANAEHNEGADVDDLKVSTVFVNEGRSLKRIMPRAKGRADRIVKRSCHITVKVADK"}},
  "target": "gp335-sfGFP (Pseudomonas phage Churi)",
  "assay": "affinity purification with mass spectrometry; gp335-sfGFP as bait expressed in P. aeruginosa PAO1 (0.4% arabinose); lysate precleared with protein A beads; anti-GFP antibody (Chromotek) 16 h at 8°C, then protein A beads 3 h at 25°C; washes with 1x PBS + 0.1% Tween 20 and 1x PBS; on-bead digestion, LC-MS/MS; proteins pulled down with sfGFP alone subtracted",
  "note": "Results are given in words; binding and its absence hold for the method and conditions named. Binding seen in cells or lysates may run through a third protein. Here binding means that the protein was enriched with, or labelled near, the bait; the list need not be complete.",
  "data": [
    {"binder": "B1", "values": [
      {"measurement": "binding", "value": "binds"}
    ]},
    {"binder": "B2", "values": [
      {"measurement": "binding", "value": "binds"}
    ]},
    {"binder": "B3", "values": [
      {"measurement": "binding", "value": "binds"}
    ]},
    {"binder": "B4", "values": [
      {"measurement": "binding", "value": "binds"}
    ]},
    {"binder": "B5", "values": [
      {"measurement": "binding", "value": "binds"}
    ]},
    {"binder": "B6", "values": [
      {"measurement": "binding", "value": "binds"}
    ]},
    {"binder": "B7", "values": [
      {"measurement": "binding", "value": "binds"}
    ]},
    {"binder": "B8", "values": [
      {"measurement": "binding", "value": "binds"}
    ]},
    {"binder": "B9", "values": [
      {"measurement": "binding", "value": "binds"}
    ]},
    {"binder": "B10", "values": [
      {"measurement": "binding", "value": "binds"}
    ]}
  ]
}
